# Test results taken from the supplement of paper PMC8728848.
# This is one part of the list.
# Tests used:
# Assay in all cases: glycan array binding signal (z-score within array); higher = stronger binding
# Settings in all cases: glycan notation: IUPAC condensed, linker removed
# [1] = target: Gal(b1-4)GlcNAc(b1-3)Gal(b1-4)GlcNAc(b1-2)Man(a1-3)[Gal(b1-4)GlcNAc(b1-3)Gal(b1-4)GlcNAc(b1-2)Man(a1-6)]Man(b1-4)GlcNAc(b1-4)[Fuc(a1-6)]GlcNAc
# Outline: (§1)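 Columns mapping to the same glycan were averaged after glycan names were converted to IUPAC-condensed notation. The data come from 3228 arrays in the Consortium for Functional Glycomics database, limited to those with an available protein sequence. Binding is reported as a within-array Z-score averaged across arrays of one protein sequence and across linkers.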
# [2] = target: Gal(b1-4)GlcNAc(b1-3)Gal(b1-4)GlcNAc(b1-2)[Gal(b1-4)GlcNAc(b1-3)Gal(b1-4)GlcNAc(b1-6)]Man(a1-6)[Gal(b1-4)GlcNAc(b1-3)Gal(b1-4)GlcNAc(b1-2)Man(a1-3)]Man(b1-4)GlcNAc(b1-4)GlcNAc
# Outline: as §1
# [3] = target: Gal(b1-4)GlcNAc(b1-3)Gal(b1-4)GlcNAc(b1-2)[Gal(b1-4)GlcNAc(b1-3)Gal(b1-4)GlcNAc(b1-6)]Man(a1-6)[Gal(b1-4)GlcNAc(b1-3)Gal(b1-4)GlcNAc(b1-2)Man(a1-3)]Man(b1-4)GlcNAc(b1-4)[Fuc(a1-6)]GlcNAc
# Outline: as §1
# [4] = target: Gal(b1-4)GlcNAc(b1-3)Gal(b1-4)GlcNAc(b1-3)Gal(b1-4)GlcNAc
# Outline: as §1
# [5] = target: Gal(b1-4)GlcNAc(b1-3)Gal(b1-4)GlcNAc(b1-3)Gal(b1-4)GlcNAc(b1-2)Man(a1-3)[Gal(b1-4)GlcNAc(b1-3)Gal(b1-4)GlcNAc(b1-3)Gal(b1-4)GlcNAc(b1-2)Man(a1-6)]Man(b1-4)GlcNAc(b1-4)GlcNAc
# Outline: as §1
# [6] = target: Gal(b1-4)GlcNAc(b1-3)Gal(b1-4)GlcNAc(b1-3)Gal(b1-4)GlcNAc(b1-2)Man(a1-3)[Gal(b1-4)GlcNAc(b1-3)Gal(b1-4)GlcNAc(b1-3)Gal(b1-4)GlcNAc(b1-2)Man(a1-6)]Man(b1-4)GlcNAc(b1-4)[Fuc(a1-6)]GlcNAc
# Outline: as §1
# [7] = target: Gal(b1-4)GlcNAc(b1-3)Gal(b1-4)GlcNAc(b1-3)Gal(b1-4)GlcNAc(b1-2)[Gal(b1-4)GlcNAc(b1-3)Gal(b1-4)GlcNAc(b1-3)Gal(b1-4)GlcNAc(b1-6)]Man(a1-6)[Gal(b1-4)GlcNAc(b1-3)Gal(b1-4)GlcNAc(b1-3)Gal(b1-4)GlcNAc(b1-2)Man(a1-3)]Man(b1-4)GlcNAc(b1-4)[Fuc(a1-6)]GlcNAc
# Outline: as §1
# [8] = target: Gal(b1-4)GlcNAc(b1-3)Gal(b1-4)GlcNAc(b1-3)Gal(b1-4)GlcNAc(b1-3)Gal(b1-4)GlcNAc(b1-2)Man(a1-3)[Gal(b1-4)GlcNAc(b1-3)Gal(b1-4)GlcNAc(b1-3)Gal(b1-4)GlcNAc(b1-3)Gal(b1-4)GlcNAc(b1-2)Man(a1-6)]Man(b1-4)GlcNAc(b1-4)GlcNAc
# Outline: as §1
# [9] = target: Gal(b1-4)GlcNAc(b1-3)Gal(b1-4)GlcNAc(b1-3)Gal(b1-4)GlcNAc(b1-3)Gal(b1-4)GlcNAc(b1-2)Man(a1-3)[Gal(b1-4)GlcNAc(b1-3)Gal(b1-4)GlcNAc(b1-3)Gal(b1-4)GlcNAc(b1-3)Gal(b1-4)GlcNAc(b1-2)Man(a1-6)]Man(b1-4)GlcNAc(b1-4)[Fuc(a1-6)]GlcNAc
# Outline: as §1
# [10] = target: Gal(b1-4)GlcNAc(b1-3)Gal(b1-4)GlcNAc(b1-3)Gal(b1-4)GlcNAc(b1-3)Gal(b1-4)GlcNAc(b1-2)[Gal(b1-4)GlcNAc(b1-3)Gal(b1-4)GlcNAc(b1-3)Gal(b1-4)GlcNAc(b1-3)Gal(b1-4)GlcNAc(b1-6)]Man(a1-6)[Gal(b1-4)GlcNAc(b1-3)Gal(b1-4)GlcNAc(b1-3)Gal(b1-4)GlcNAc(b1-3)Gal(b1-4)GlcNAc(b1-2)Man(a1-3)]Man(b1-4)GlcNAc(b1-4)[Fuc(a1-6)]GlcNAc
# Outline: as §1
# [11] = target: Gal(b1-4)GlcNAc(b1-3)Gal(b1-4)GlcNAc(b1-3)Gal(b1-4)GlcNAc(b1-3)Gal(b1-4)GlcNAc(b1-3)Gal(b1-4)GlcNAc(b1-2)Man(a1-3)[Gal(b1-4)GlcNAc(b1-3)Gal(b1-4)GlcNAc(b1-3)Gal(b1-4)GlcNAc(b1-3)Gal(b1-4)GlcNAc(b1-3)Gal(b1-4)GlcNAc(b1-2)Man(a1-6)]Man(b1-4)GlcNAc(b1-4)GlcNAc
# Outline: as §1
# [12] = target: Gal(b1-4)GlcNAc(b1-3)Gal(b1-4)GlcNAc(b1-3)Gal(b1-4)GlcNAc(b1-3)Gal(b1-4)GlcNAc(b1-3)Gal(b1-4)GlcNAc(b1-2)Man(a1-3)[Gal(b1-4)GlcNAc(b1-3)Gal(b1-4)GlcNAc(b1-3)Gal(b1-4)GlcNAc(b1-3)Gal(b1-4)GlcNAc(b1-3)Gal(b1-4)GlcNAc(b1-2)Man(a1-6)]Man(b1-4)GlcNAc(b1-4)[Fuc(a1-6)]GlcNAc
# Outline: as §1
# [13] = target: Gal(b1-4)GlcNAc(b1-3)Gal(b1-4)GlcNAc(b1-3)Gal(b1-4)GlcNAc(b1-3)Gal(b1-4)GlcNAc(b1-3)Gal(b1-4)GlcNAc(b1-2)[Gal(b1-4)GlcNAc(b1-3)Gal(b1-4)GlcNAc(b1-3)Gal(b1-4)GlcNAc(b1-3)Gal(b1-4)GlcNAc(b1-3)Gal(b1-4)GlcNAc(b1-6)]Man(a1-6)[Gal(b1-4)GlcNAc(b1-3)Gal(b1-4)GlcNAc(b1-3)Gal(b1-4)GlcNAc(b1-3)Gal(b1-4)GlcNAc(b1-3)Gal(b1-4)GlcNAc(b1-2)Man(a1-3)]Man(b1-4)GlcNAc(b1-4)[Fuc(a1-6)]GlcNAc
# Outline: as §1
# [14] = target: Gal(b1-4)GlcNAc(b1-3)Gal(b1-4)GlcNAc(b1-3)Gal(b1-4)GlcNAc(b1-3)Gal(b1-4)GlcNAc(b1-3)Gal(b1-4)GlcNAc(b1-3)Gal(b1-4)GlcNAc(b1-2)Man(a1-3)[Gal(b1-4)GlcNAc(b1-3)Gal(b1-4)GlcNAc(b1-3)Gal(b1-4)GlcNAc(b1-3)Gal(b1-4)GlcNAc(b1-3)Gal(b1-4)GlcNAc(b1-3)Gal(b1-4)GlcNAc(b1-2)Man(a1-6)]Man(b1-4)GlcNAc(b1-4)GlcNAc
# Outline: as §1
# [15] = target: Gal(b1-4)GlcNAc(b1-3)Gal(b1-4)GlcNAc(b1-3)GalNAc
# Outline: as §1
# [16] = target: Gal(b1-4)GlcNAc(b1-3)Gal(b1-4)GlcNAc(b1-3)[Gal(b1-4)GlcNAc(b1-3)Gal(b1-4)GlcNAc(b1-6)]GalNAc
# Outline: as §1
# [17] = target: Gal(b1-4)GlcNAc(b1-3)Gal(b1-4)GlcNAc(b1-6)[Gal(b1-3)]GalNAc
# Outline: as §1
# [18] = target: Gal(b1-4)GlcNAc(b1-3)Gal(b1-4)[Fuc(a1-3)]GlcNAc(b1-3)Gal(b1-4)[Fuc(a1-3)]GlcNAc
# Outline: as §1
# [19] = target: Gal(b1-4)GlcNAc(b1-3)GalNAc
# Outline: as §1
# [20] = target: Gal(b1-4)GlcNAc(b1-3)[Fuc(a1-3)GlcNAc(b1-6)]Gal(b1-4)Glc
# Outline: as §1
# [21] = target: Gal(b1-4)GlcNAc(b1-3)[Gal(b1-4)GlcNAc(b1-6)]Gal(b1-4)GlcNAc
# Outline: as §1
# [22] = target: Gal(b1-4)GlcNAc(b1-3)[GlcNAc(b1-6)]Gal(b1-4)GlcNAc
# Outline: as §1
binder,measurement,setting,value
"HA-61200 (Pseudomonas aeruginosa), Q02SP8_PSEAB (protein) MNKCYALVWNVSQGCWNVVSEGSRRRGKPAGAKAAIASVLALLGATALAPAYALPSGGTVVGGSANGEIHLSGGNSLSVNQKVDKLIANWDSFSVAAGERVIFNQPSSSSIALNRVIGTKASDIQGRIDANGQVFLVNPNGVLFGRGAQVNVGGLVASTLDITDAEFNGNSSRYRFTGPSTNGVLNHGGAITAAEGGSIALLGAQVDNRGTVLAQMGGVGLGAGSDLTLNFDGNKLLDIRVDAGVANALASNGGLLKADGGRVLMAARTANALLNTVVNSQGAIEARSLRGKNGRIVLDG",glycan array binding signal (z-score),[1],2.26
same,glycan array binding signal (z-score),[2],1.46
same,glycan array binding signal (z-score),[3],-0.339
same,glycan array binding signal (z-score),[4],-0.492
same,glycan array binding signal (z-score),[5],3.1
same,glycan array binding signal (z-score),[6],3.46
same,glycan array binding signal (z-score),[7],0.401
same,glycan array binding signal (z-score),[8],5.18
same,glycan array binding signal (z-score),[9],0.484
same,glycan array binding signal (z-score),[10],1.92
same,glycan array binding signal (z-score),[11],1.63
same,glycan array binding signal (z-score),[12],2.6
same,glycan array binding signal (z-score),[13],1.08
same,glycan array binding signal (z-score),[14],1.29
same,glycan array binding signal (z-score),[15],-0.13
same,glycan array binding signal (z-score),[16],0.642
same,glycan array binding signal (z-score),[17],-0.293
same,glycan array binding signal (z-score),[18],0.117
same,glycan array binding signal (z-score),[19],-0.887
same,glycan array binding signal (z-score),[20],-0.744
same,glycan array binding signal (z-score),[21],-0.85
same,glycan array binding signal (z-score),[22],-0.594

# An excerpt of these results, bar-delimited.
binder | measurement | setting | value
HA-61200 (Pseudomonas aeruginosa), Q02SP8_PSEAB (protein) MNKCYALVWNVSQGCWNVVSEGSRRRGKPAGAKAAIASVLALLGATALAPAYALPSGGTVVGGSANGEIHLSGGNSLSVNQKVDKLIANWDSFSVAAGERVIFNQPSSSSIALNRVIGTKASDIQGRIDANGQVFLVNPNGVLFGRGAQVNVGGLVASTLDITDAEFNGNSSRYRFTGPSTNGVLNHGGAITAAEGGSIALLGAQVDNRGTVLAQMGGVGLGAGSDLTLNFDGNKLLDIRVDAGVANALASNGGLLKADGGRVLMAARTANALLNTVVNSQGAIEARSLRGKNGRIVLDG | glycan array binding signal (z-score) | [21] | -0.85
same | glycan array binding signal (z-score) | [22] | -0.594
